In test [1] the target is MYC (endogenous, wild type) (human (endogenous in HCCLM3)) (UniProt P01106). The experiment in a line: co-IP; endogenous co-IP in MYC^WT and MYC^K148R HCCLM3 cells; precipitating antibody not told.
The next test concerns the target HDAC3-HA-tag (human) (UniProt O15379). The experiment in a line: co-IP; HEK 293T cells cotransfected with MYC constructs (GFP tag) and SCARB2 (Myc tag) or HDAC3 (HA tag); extracts IP with anti-Myc or anti-HA antibody.
A further test deals with T1, SCARB2-Myc-tag (human) (UniProt Q14108).
T1 sequence: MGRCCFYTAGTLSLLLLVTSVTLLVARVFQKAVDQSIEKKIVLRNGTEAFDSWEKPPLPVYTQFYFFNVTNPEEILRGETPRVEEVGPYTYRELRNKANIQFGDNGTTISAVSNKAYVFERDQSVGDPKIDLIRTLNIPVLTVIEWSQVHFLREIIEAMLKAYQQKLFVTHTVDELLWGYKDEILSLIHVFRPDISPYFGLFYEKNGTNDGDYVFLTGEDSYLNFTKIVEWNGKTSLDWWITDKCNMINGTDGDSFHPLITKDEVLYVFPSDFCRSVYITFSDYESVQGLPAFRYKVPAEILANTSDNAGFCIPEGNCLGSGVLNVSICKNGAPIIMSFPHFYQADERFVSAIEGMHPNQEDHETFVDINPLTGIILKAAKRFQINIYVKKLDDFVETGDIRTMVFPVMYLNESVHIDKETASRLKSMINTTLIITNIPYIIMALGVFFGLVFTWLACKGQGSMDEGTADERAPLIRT
Described as above.

Protein sequences, listed by entry. Tags and fused reporters are not part of them. Lines headed by an entry give the natural chain unless they say otherwise; changes in a name come on top.
UniProt P01106: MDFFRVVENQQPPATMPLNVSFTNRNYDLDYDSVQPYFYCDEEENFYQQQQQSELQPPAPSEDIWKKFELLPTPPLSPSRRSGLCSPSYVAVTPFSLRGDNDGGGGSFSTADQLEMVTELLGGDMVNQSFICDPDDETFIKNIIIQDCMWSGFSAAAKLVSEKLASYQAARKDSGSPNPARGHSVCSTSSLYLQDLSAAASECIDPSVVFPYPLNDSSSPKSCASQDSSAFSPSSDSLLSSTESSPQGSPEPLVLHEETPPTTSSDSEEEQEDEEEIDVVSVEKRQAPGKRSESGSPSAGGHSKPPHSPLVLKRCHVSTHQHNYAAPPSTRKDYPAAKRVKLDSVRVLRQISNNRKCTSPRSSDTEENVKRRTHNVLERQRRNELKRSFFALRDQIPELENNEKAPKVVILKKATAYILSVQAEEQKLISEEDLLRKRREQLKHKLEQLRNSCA
UniProt O15379: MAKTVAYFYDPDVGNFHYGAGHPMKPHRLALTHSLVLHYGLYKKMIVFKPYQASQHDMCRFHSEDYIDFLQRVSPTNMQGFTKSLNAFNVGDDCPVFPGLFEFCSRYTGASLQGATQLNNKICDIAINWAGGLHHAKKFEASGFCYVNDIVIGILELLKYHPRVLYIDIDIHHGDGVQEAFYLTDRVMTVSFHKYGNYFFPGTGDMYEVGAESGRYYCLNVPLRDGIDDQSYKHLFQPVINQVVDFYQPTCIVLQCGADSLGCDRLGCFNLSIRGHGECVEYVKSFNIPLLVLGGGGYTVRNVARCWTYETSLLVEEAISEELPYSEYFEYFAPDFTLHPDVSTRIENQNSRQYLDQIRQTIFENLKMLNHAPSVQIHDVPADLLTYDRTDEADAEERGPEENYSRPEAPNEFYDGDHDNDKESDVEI
UniProt Q92993: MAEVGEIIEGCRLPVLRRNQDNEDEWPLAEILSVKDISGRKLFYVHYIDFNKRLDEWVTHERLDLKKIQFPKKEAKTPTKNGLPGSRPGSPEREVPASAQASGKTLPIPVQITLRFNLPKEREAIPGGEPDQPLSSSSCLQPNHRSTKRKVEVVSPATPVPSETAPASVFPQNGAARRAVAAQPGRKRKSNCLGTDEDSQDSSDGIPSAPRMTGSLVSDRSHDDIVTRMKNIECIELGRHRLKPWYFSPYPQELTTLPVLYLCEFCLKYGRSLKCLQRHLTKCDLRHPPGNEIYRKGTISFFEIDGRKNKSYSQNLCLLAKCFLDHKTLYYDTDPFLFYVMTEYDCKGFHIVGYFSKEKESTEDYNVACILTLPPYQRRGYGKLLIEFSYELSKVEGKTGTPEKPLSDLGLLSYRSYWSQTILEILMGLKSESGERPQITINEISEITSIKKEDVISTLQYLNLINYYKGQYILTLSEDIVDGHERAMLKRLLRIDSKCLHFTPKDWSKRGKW
UniProt Q92830: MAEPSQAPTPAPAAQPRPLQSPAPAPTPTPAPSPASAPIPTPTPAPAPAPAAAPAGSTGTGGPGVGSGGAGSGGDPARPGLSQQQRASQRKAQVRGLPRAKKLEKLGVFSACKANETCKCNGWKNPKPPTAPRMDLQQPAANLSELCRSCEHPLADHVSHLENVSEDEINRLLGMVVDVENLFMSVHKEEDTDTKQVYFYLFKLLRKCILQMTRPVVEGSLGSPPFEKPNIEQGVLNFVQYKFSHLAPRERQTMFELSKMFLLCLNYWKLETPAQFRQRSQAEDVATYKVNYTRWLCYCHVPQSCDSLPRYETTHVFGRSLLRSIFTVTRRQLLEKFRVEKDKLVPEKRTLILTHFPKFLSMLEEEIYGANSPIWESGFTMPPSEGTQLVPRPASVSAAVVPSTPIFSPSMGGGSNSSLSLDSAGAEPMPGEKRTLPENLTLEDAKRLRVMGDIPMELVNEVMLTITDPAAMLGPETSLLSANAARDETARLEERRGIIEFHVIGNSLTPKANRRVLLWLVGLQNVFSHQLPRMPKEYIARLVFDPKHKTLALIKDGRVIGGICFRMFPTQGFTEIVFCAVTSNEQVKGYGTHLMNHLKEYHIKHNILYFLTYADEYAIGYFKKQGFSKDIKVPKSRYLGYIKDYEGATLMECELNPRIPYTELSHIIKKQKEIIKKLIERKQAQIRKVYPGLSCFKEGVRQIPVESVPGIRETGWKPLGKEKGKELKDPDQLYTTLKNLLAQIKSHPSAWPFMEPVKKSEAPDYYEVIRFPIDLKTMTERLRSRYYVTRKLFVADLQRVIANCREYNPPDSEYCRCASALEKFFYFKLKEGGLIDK

The target in test [2] is T2, Scavenger receptor class B member 2 (SCARB2), endogenous (human (endogenous in HCCLM3)) (UniProt Q14108).
T2 sequence: T1 sequence
The experiment in a line: co-IP; endogenous proteins; cytomembrane fraction of HCCLM3 cells.

For test [3], the target named is T2, Scavenger receptor class B member 2 (SCARB2), endogenous (human (endogenous in HCCLM3)). The experiment in a line: co-IP; endogenous proteins; cytoplasm and nucleus fractions of HCCLM3 cells.
In test [4] the target is HDAC3 (endogenous) (human (endogenous in HCCLM3)) (UniProt O15379). The experiment in a line: co-IP; endogenous proteins in whole extracts of HCCLM3 cells; antibody overnight at 4 °C, then Protein A/G agarose; cells with or without SCARB2 knockout or overexpression, DMSO or PMB (IP with anti-SCARB2 antibody in the PMB panel).
Test [5] deals with T2, Scavenger receptor class B member 2 (SCARB2), endogenous (human (endogenous in HCCLM3)). The description is as above.
In another test the target is MYC-Flag-tag (human) (UniProt P01106). The experiment in a line: co-IP; HEK 293T cells cotransfected with SCARB2 constructs (Myc-tagged) and MYC (Flag-tagged); extracts IP with anti-Flag.

Binding data for six molecules are collected here from PMC10517016, “SCARB2 drives hepatocellular carcinoma tumor initiating cells via enhanced MYC transcriptional activity” (Nature Communications, 2023).

No constants are given. Whether binding was seen depends on the method and setting. In cells and extracts the contact can be indirect. Some entries that bind do so weakly or less than the wild type. For some assays here: Where a sequence is shown, tags or fusion partners need not be part of it.

Turning to “KAT5 (endogenous) (from UniProt Q92993 1-513)”, in test [1], the binding result is given as “binds”. Consider “MYC central region (amino acids 144-360), GFP tag (from UniProt P01106 144-360) (domain or fragment)”, for which the binding result with HDAC3-HA-tag (human) and with SCARB2-Myc-tag (human) was “binds” throughout. With “MYC (endogenous, wild type) (from UniProt P01106-2 1-454)”, the binding result in test [2] is listed as “no binding (condition: in the cytomembrane fraction)”; in test [3], “binds”; in test [4] it was “binds”; in test [5], “binds”. For the molecule “GCN5 (endogenous) (from UniProt Q92830 1-837)”, the binding entry in test [1] is recorded as “binds”. As to “MYC-N (amino acids 1-144), GFP tag (from UniProt P01106 1-144) (domain or fragment)”, the binding entry with HDAC3-HA-tag (human) and with SCARB2-Myc-tag (human) was “binds” each time.

B1: SCARB2-Myc-tag (protein, UniProt Q14108 1-478)
chain: T1 sequence
With B1, in the test with MYC-Flag-tag (human), the binding entry is “binds”.
